From PubChem BioAssay AID493014 (National Center for Advancing Translational Sciences (NCATS), 2011)
The other results are listed elsewhere or left out. These are further read-outs of the screen, such as a control signal, another cell line or another target. No call is given for them. The list favours compounds with an active or inconclusive main result. Potencies come from curve fits of mixed quality, noted in brackets.

Assay: qHTS Assay to Find Inhibitors of Chronic Active B-Cell Receptor Signaling
Conditions: ABC-DLBCL IkBa-CBG/CBR reporter, luminescence ratio (green luciferase fused to IkBa over red control in TMD8 lymphoma cells), 4 h
In short: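 Concentration-response series (up to 46 uM) were applied to TMD8 dual-reporter cells for 4 h at 37C with doxycycline. Green/red ratio, after filter-overlap correction, defined %Activity; red signal alone was normalised to basal cells and zero luminescence.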

[1] = measured here: CBR red luminescence, cell number
[2] = measured here: IkBa-CBG green luminescence

SMILES | AC50 [1] | AC50 [2]
O=[N+]([O-])c1ccc(-c2ccc(/C=N/n3cnnc3)o2)c(Br)c1 | 28.2 µM [falling, partial curve, poor fit] | –
CCc1ccc(C2CC(c3ccccc3)Nc3nc(N)nn32)cc1 (centres undefined) | 3.55 µM [rising, single point] | –
Cc1csc(NC(=O)c2ccc3nc[nH]c3c2)n1 | 22.4 µM [falling, single point] | –
O=C(C[n+]1ccccc1)Nc1nc2ccccc2s1 | 3.66 µM [falling, full curve] | –
O=c1oc2ccccc2c2c1ncn2-c1ccccc1 | 0.517 µM [rising, full curve, poor fit] | 6.51 µM [falling, partial curve, poor fit]
CSc1nnc(-c2ccccc2)c(=O)[nH]1 | 15.8 µM [falling, single point] | –
CC1(C)Oc2ccc(C(=O)Nc3ccccc3F)cc2N(CC(=O)N2CCOCC2)C1=O | 1.78 µM [falling, partial curve, poor fit] | –
CCOC(=O)N1CCN(C(=O)c2ccc3c(=O)n(CC4CCCO4)c(=S)[nH]c3c2)CC1 (centres undefined) | 8.91 µM [rising, partial curve, poor fit] | –
COc1ccc(OCC(O)Cn2cnc(-c3ccc(Br)cc3)c2)cc1 (centres undefined) | 13 µM [rising, partial curve, poor fit] | –
COc1ccc2nc3n(c(=O)c2c1)-c1cc(C)ccc1C(=O)NC3Cc1ccc(O)cc1 (centres undefined) | 0.146 µM [rising, full curve, poor fit] | –
N#Cc1nc(-c2ccc(OCc3ccccc3)cc2)oc1N1CCOCC1 | 0.259 µM [rising, full curve, poor fit] | –
CC(C)CC(=O)Nc1cccc(C(=O)Nc2ccccc2C(=O)O)c1 | 11.6 µM [falling, partial curve] | –
CSc1ccccc1NC(=O)c1cc(-c2cccs2)on1 | 2.82 µM [falling, partial curve, poor fit] | –
O=C(COC(=O)c1ccc2ncsc2c1)Nc1cc([N+](=O)[O-])ccc1Cl | 0.58 µM [falling, partial curve, poor fit] | –
O=C(N/N=C/c1ccc(-c2ccc(Cl)c(C(=O)O)c2)o1)c1cc2c(ccc3ccccc32)o1 | 1.26 µM [falling, full curve] | –
CCC(C)(C)NC(=O)CN(C(=O)c1ccc(N2CCCC2)nc1)c1ccc(F)cc1 | 35.5 µM [falling, single point] | –
Cc1c(-c2ncn[nH]2)sc(C#N)c1-c1ccccc1 | 35.5 µM [rising, single point] | –
COc1ccc(C2(C)NC(=O)N(Cc3cc(Cl)cc4c3OCOC4)C2=O)cc1OC (centres undefined) | 5.62 µM [rising, single point] | –
COc1ccc(NC(=O)CCN2CCN(S(=O)(=O)c3cc(Cl)ccc3OC)CC2)cc1 | 3.66 µM [rising, partial curve] | –
Cc1ccccc1Nc1nc(N)nc(COC(=O)c2ccc(S(=O)(=O)N(C)C)cc2)n1 | 20.6 µM [rising, single point] | –
O=C(NNC(=O)c1ccc(Cl)s1)c1csc(N2CCOCC2)n1 | 10.3 µM [falling, partial curve] | –
O=C1/C(=C/c2ccc(O)cc2)COc2ccccc21 | 4.47 µM [rising, single point] | –

SMILES | AC50 [1] | AC50 [2]
O=C(Cn1cc(S(=O)(=O)Cc2ccccc2F)c2ccccc21)N1CCOCC1 | 0.251 µM [falling, full curve, poor fit] | –
NC(=O)COc1ccc(NC(=O)OCc2ccccc2)cc1 | 0.58 µM [rising, partial curve, poor fit] | –
COCc1nc(-c2cc(OC)c(OC)c(OC)c2)no1 | 17.8 µM [rising, partial curve, poor fit] | –
COc1ccc(Nc2nc(-c3ccccc3)cs2)cc1 | 20.6 µM [falling, single point] | –
O=[N+]([O-])/C(N=Nc1ccccc1)=N\Nc1ccccc1 | 17.8 µM [rising, single point] | –
O=C(c1ccc(-c2ccccc2)c(F)c1)C1CCCN(C(=O)c2cncs2)C1 (centres undefined) | 0.794 µM [rising, partial curve, poor fit] | –
Cc1cc(C)n(S(=O)(=O)c2cc(C(=O)O)c(Cl)cc2Cl)n1 | 29.1 µM [rising, single point] | 0.231 µM [rising, full curve, poor fit]
Cc1cc(C(=O)N(C)C)sc1-c1ccccc1 | 4.61 µM [rising, full curve] | –
COc1cc2[nH]c(C(=O)N3CCC(Cc4ccccc4)CC3)cc2c(OC)c1OC | 35.5 µM [falling, single point] | –
Cc1cc(Cl)ccc1OC(C)C(=O)NC(C)C1CCCO1 (centres undefined) | 15.8 µM [falling, single point] | –
O=C(Cc1ccccc1[N+](=O)[O-])NCCCc1ccccc1 | 7.94 µM [rising, partial curve, poor fit] | –
O=C(Nc1ccc(Cl)cn1)c1cccc(F)c1 | 8.91 µM [falling, partial curve, poor fit] | –
S=C(Nc1cccc(Br)c1)c1ccccc1 | 0.366 µM [rising, full curve, poor fit] | –
Cc1ccccc1NC(=O)CSC(N)=O | 6.51 µM [rising, single point] | –
COc1ccccc1-c1ccc(SCc2ccccc2)nn1 | 11.2 µM [falling, partial curve] | –
CCn1c2ccccc2c2cc(NC(=O)CSc3nnc(C4CC4)n3Cc3ccco3)ccc21 | 6.51 µM [falling, single point] | 29.1 µM [falling, single point]
CCN(CC)C(=O)c1sc(N)c(C(=O)OC(C)C)c1C | 9.2 µM [falling, partial curve, poor fit] | 1.3 µM [rising, full curve, poor fit]
N/C(=N\OC(=O)c1ccc(Cl)cc1)c1ccccn1 | 10 µM [falling, partial curve, poor fit] | –
COCCN(C(=O)COC(=O)c1cc(C)n(-c2ccccc2)c1C)c1c(N)n(Cc2ccccc2)c(=O)[nH]c1=O | 13 µM [rising, partial curve] | –
CC(C(=O)N1CCc2ccccc2C1)N1C(=O)c2ccccc2C1=O (centres undefined) | 0.631 µM [falling, full curve, poor fit] | –
CCn1c(SCC(=O)Nc2ccc(OC)c(OC)c2)nc2c(c1=O)SCC2 | 35.5 µM [falling, single point] | –
O=C(Cc1cccs1)Nc1ccc(Cl)cc1 | 0.291 µM [rising, partial curve, poor fit] | –

SMILES | AC50 [1] | AC50 [2]
CCCCC(=O)Nc1ccc(NC(=O)C(C)C)cn1 | 12.6 µM [rising, single point] | –
COC(=O)CSc1nc(C)cc(Oc2ccccc2)n1 | 23.1 µM [rising, partial curve, poor fit] | –
CCN(C(=O)COC(=O)CNC(=O)c1ccc2ccccc2c1)C1CCS(=O)(=O)C1 (centres undefined) | 15.8 µM [falling, single point] | –
COc1cc(C(c2sc3nc(C)nn3c2O)N2CCC3(CC2)OCCO3)cc(OC)c1OC (centres undefined) | 0.92 µM [rising, full curve, poor fit] | –
Cc1[nH]c2ccc(F)cc2c1CCN(Cc1ccncc1)C(=S)Nc1cccc(F)c1 | 35.5 µM [falling, single point] | –
Cn1cccc1/C=N\NC(=O)c1cncc(Br)c1 | 35.5 µM [falling, single point] | –
COc1ccccc1CNS(=O)(=O)c1ccc2c(c1)CC(C)N2C(=O)C1CCC1 (centres undefined) | 35.5 µM [falling, single point] | –
Cc1c(C(=O)NCCCN2CCCC2=O)oc2ccc(S(=O)(=O)N3CCOCC3)cc12 | 20.6 µM [falling, single point] | –
COCCOCC(O)CN1CCN(c2ccccc2)CC1 (centres undefined) | 6.51 µM [falling, single point] | –
Cc1nc(NC(=O)c2ccccc2O)sc1C | 2.24 µM [falling, partial curve, poor fit] | –
Cn1c(=O)c2c(O)c(C=Nc3ccc(F)cc3)c(=O)n(C)c2n(C)c1=O | 3.16 µM [rising, single point] | –
OC(CNCCc1ccccc1)COc1ccc(OCC(O)CNCCc2ccccc2)cc1 (centres undefined) | 11.2 µM [falling, partial curve, poor fit] | –
CCN(CC(=O)NCc1cccs1)C(=O)CCOc1ccccc1 | 29.1 µM [rising, single point] | –
COc1ccc(C2c3c(ncn(CCCO)c3=N)Oc3ccc4ccccc4c32)cc1 (centres undefined) | 14.1 µM [falling, single point] | 35.5 µM [rising, partial curve, poor fit]
Cc1ccc2c(c1)COc1c3ccc(C(=O)O)cc3nn1-2 | 7.94 µM [falling, partial curve, poor fit] | –
O=C(Nc1ccc(N2CCOCC2)c(F)c1)c1cccs1 | 14.1 µM [falling, single point] | –
O=C(Nc1ccccc1)c1ccc2ccccc2n1 | 22.4 µM [falling, single point] | –
Cc1cc(S(=O)(=O)NCC(C)C)ccc1OCC(=O)NCc1ccco1 | 0.631 µM [rising, full curve, poor fit] | –
COc1ccc(-n2c(N)c(C(=O)NCc3ccco3)c3nc4ccccc4nc32)cc1 | 5.62 µM [falling, partial curve] | –
O=C(CCc1ccccc1)NC(=S)Nc1ccc2c(c1)C(=O)OC2 | 35.5 µM [rising, single point] | –

Gathered by group: the entries above containing a nitro group on carbon.
SMILES | AC50 [1] | AC50 [2]
O=[N+]([O-])c1ccc(-c2ccc(/C=N/n3cnnc3)o2)c(Br)c1 | 28.2 µM [falling, partial curve, poor fit] | –
O=C(COC(=O)c1ccc2ncsc2c1)Nc1cc([N+](=O)[O-])ccc1Cl | 0.58 µM [falling, partial curve, poor fit] | –
O=[N+]([O-])/C(N=Nc1ccccc1)=N\Nc1ccccc1 | 17.8 µM [rising, single point] | –
O=C(Cc1ccccc1[N+](=O)[O-])NCCCc1ccccc1 | 7.94 µM [rising, partial curve, poor fit] | –
